Test results reported in PubChem BioAssay AID1347131 (National Center for Advancing Translational Sciences (NCATS), 2019).
About 2,000 (0.49%) of roughly 410,000 compounds were called active. The inconclusive results got no clear call from the source; some entries with a clear call stand among them for comparison. The call rests on the fitted dose curve; tested in HEK293 reporter line. Potencies beside an inconclusive call are fits to weak or partial responses and may not hold up.

experiment: qHTS Assay for Foot and Mouth Disease Virus Antivirals: Primary Screen against the MLPCN compound library; settings: FMDV antiviral cell-based qHTS; activity, negative = inhibition: at 57.9 µM (top of the series); further: nearly all actives have a fitted effect of over 55% in size
Potency means the concentration at half of the fitted maximal effect.

Q: With CC1CCCN(CCOCCOc2ccc(Cl)cc2Br)C1 (stereo not given) as the molecule, how does the Potency read?
A: inconclusive: 15.8 µM [inhibitor, single point]

Q: For CC(C)C(=O)Nc1nc(-c2ccc3c(c2)CCN3C(=O)C2CC2)cs1, which Potency is on record?
A: inconclusive: 39.8 µM [inhibitor, single point]

Q: With Cc1c(NC(=O)/C(C#N)=C/c2ccc(-c3ccc(Cl)cc3)o2)c(=O)n(-c2ccccc2)n1C as the molecule, how does the Potency read?
A: inconclusive: 25.1 µM [inhibitor, partial curve, poor fit]

Q: With O=c1c2cn[nH]c2nc(SCc2ccc3c(c2)OCCO3)n1-c1ccccc1 as the molecule, how does the Potency read?
A: inconclusive: 25.1 µM [inhibitor, partial curve, poor fit]

Q: Which Potency does the source give for COc1ccc(/C=C/c2nc3ccccc3n2C)cc1 here?
A: inconclusive: 1.78 µM [inhibitor, full curve, poor fit]

Q: With COc1cc(NC(=O)Nc2cccc(Cl)c2)c(C(=O)O)cc1OC as the molecule, how does the Potency read?
A: inactive

Q: With Cc1cc(NC(=O)Nc2cccc(Cl)c2)n(-c2ccccn2)n1 as the molecule, how does the Potency read?
A: inconclusive: 2.24 µM [inhibitor, partial curve, poor fit]

Q: Which Potency does the source give for O=C(Nc1ccc(CN2CCOCC2)cc1)c1cc2ccccn2n1 here?
A: inconclusive: 15.8 µM [inhibitor, single point]

Q: Which Potency does the source give for CCOC(=O)C1=C(O)c2ccccc2C(=O)/C1=C\c1ccc(C)cc1 here?
A: inconclusive: 28.2 µM [inhibitor, partial curve, poor fit]

Q: With COc1cccc(N2CC(C(=O)Nc3nnc(SCC(=O)NCc4ccco4)s3)CC2=O)c1 (stereo not given) as the molecule, how does the Potency read?
A: inconclusive: 2.24 µM [inhibitor, partial curve, poor fit]

Q: Which Potency does the source give for COc1ccccc1NC(=O)COc1cccc(-n2cnnn2)c1 here?
A: inconclusive: 10 µM [inhibitor, partial curve, poor fit]

Q: For Cc1ccc(C(=O)CSC2=C(C#N)C(c3ccco3)C3=C(CC(C)(C)CC3=O)N2)cc1 (stereo not given), which Potency is on record?
A: inconclusive: 20 µM [inhibitor, partial curve, poor fit]

Q: For CN(C)c1ccc(/C=C/c2nc3ccccc3c(=O)[nH]2)cc1, which Potency is on record?
A: inconclusive: 10 µM [inhibitor, partial curve, poor fit]

Q: For COc1ccc(C(=O)Nc2cc(C)nc3ccccc23)cc1OC, which Potency is on record?
A: inconclusive: 17.8 µM [inhibitor, single point]

Q: With COc1ccc(OCC(=O)Nc2ccc(C(=O)OCc3cc(=O)n4nc(C)sc4n3)cc2)cc1 as the molecule, how does the Potency read?
A: inconclusive: 10 µM [inhibitor, partial curve, poor fit]

Q: With COc1ccccc1N/C=C/c1onc(C)c1[N+](=O)[O-] as the molecule, how does the Potency read?
A: active: 12.6 µM

Q: For COc1cccc(S(=O)(=O)c2nc(C)c3c(n2)CCC3)c1, which Potency is on record?
A: inconclusive: 12.6 µM [inhibitor, partial curve, poor fit]

Q: For Cc1[nH]c(=O)c(C(=O)/C=C/c2ccccc2)c2c1CCCC2, which Potency is on record?
A: inconclusive: 12.6 µM [inhibitor, partial curve, poor fit]

Q: For Oc1cccc(-c2nnc(-c3cccc(O)c3)nn2)c1, which Potency is on record?
A: inconclusive: 8.91 µM [inhibitor, partial curve, poor fit]

Q: For O=C1c2cccnc2Oc2ccc(Cl)cc2N1Cc1ccc(F)cc1, which Potency is on record?
A: inactive

Q: Which Potency does the source give for N#C/C(=C\c1ccc(Oc2ccc(C(F)(F)F)cc2[N+](=O)[O-])cc1)c1nc2ccccc2[nH]1 here?
A: inconclusive: 25.1 µM [inhibitor, single point]

Q: Which Potency does the source give for Cc1cccc(-n2c(SCC(N)=O)nc3c(c2=O)C2(CCCCC2)Cc2ccccc2-3)c1 here?
A: inconclusive: 14.1 µM [inhibitor, partial curve, poor fit]

Q: For CCOC(=O)N1CCN(c2ncc3c(n2)CC(c2ccccc2O)CC3=O)CC1 (stereo not given), which Potency is on record?
A: inconclusive: 22.4 µM [inhibitor, partial curve, poor fit]

Q: With Cc1noc2ncnc(N3CCCCC3)c12 as the molecule, how does the activity, negative = inhibition read?
A: inconclusive: -37.1% [inhibitor]

Q: For CC(C)CC(C(=O)NC1CCCC1)N(Cc1cccs1)C(=O)c1snc(C(N)=O)c1N (stereo not given), which activity, negative = inhibition is on record?
A: inconclusive: -30.7% [inhibitor]

Q: With CCOc1cccc(C(=O)Nc2ccc3oc(-c4cccnc4)nc3c2)c1 as the molecule, how does the activity, negative = inhibition read?
A: inconclusive: -64.3% [inhibitor]

Q: With CC(=O)c1cccc(NC(=O)C2Cc3c(-c4ccc(Cl)cc4)ccnc3O2)c1 (stereo not given) as the molecule, how does the Potency read?
A: inconclusive: 35.5 µM [inhibitor, partial curve, poor fit]

Q: With Cc1cccc(/C(N)=N/OC(=O)c2ccc(Cl)cc2Cl)c1 as the molecule, how does the Potency read?
A: active: 20 µM

Q: Which Potency does the source give for CC1CC(C)CN(S(=O)(=O)c2ccc(C(=O)Nc3sccc3C(N)=O)cc2)C1 (stereo not given) here?
A: active: 8.91 µM

Q: Which Potency does the source give for CC1(C)C(=O)C=C[C@]2(C)C1CC(=O)[C@]1(C)C2CC[C@@]2(C)C(c3ccoc3)OC(=O)C3O[C@@]321 (stereo not given in full) here?
A: inconclusive: 17.8 µM [inhibitor, partial curve, poor fit]

Q: For N#C/C(=C/c1ccc(N2CCOCC2)o1)c1nc2ccccc2[nH]1, which Potency is on record?
A: active: 8.91 µM

Q: Which Potency does the source give for CC1(Cc2ccc(C(F)(F)F)o2)C(=O)Nc2cc(-c3ccc(F)cc3F)ccc21 (stereo not given) here?
A: inactive

Q: Which Potency does the source give for Cc1ccc(-c2noc(-c3ccc(N4CCCCC4)c([N+](=O)[O-])c3)n2)cc1 here?
A: inactive

Q: With COc1ccc(NC(=O)c2noc3c2CCC3)cc1 as the molecule, how does the Potency read?
A: inconclusive: 17.8 µM [inhibitor, single point]

Q: Which Potency does the source give for CCCc1c(-c2ccccc2F)ncn1CCc1ccccc1OC here?
A: inconclusive: 31.6 µM [inhibitor, single point]

Q: For CC(OC(=O)/C=C/c1ccco1)C(=O)NC1CCCCC1C (stereo not given), which Potency is on record?
A: inactive

Q: For CCOc1ccccc1CNC(=O)c1ccc2nc(Cc3ccc(OC)cc3)oc2c1, which Potency is on record?
A: inconclusive: 2.51 µM [inhibitor, full curve]

Q: Which Potency does the source give for CS(=O)(=O)c1ccc(C(=O)Nc2ccc(-c3nc4ccccc4[nH]3)cc2)cc1 here?
A: inactive

Q: Which Potency does the source give for Cc1cc(C(=O)c2ccc(C(C)(C)C)cc2)c(NC(=O)CCl)s1 here?
A: inconclusive: 35.5 µM [inhibitor, partial curve, poor fit]

Q: Which Potency does the source give for CCOC(=O)c1c(C)oc2nc(C)nc(N3CCN(c4ccccc4)CC3)c12 here?
A: inconclusive: 28.2 µM [inhibitor, partial curve, poor fit]
